Data from PubChem BioAssay AID270 (DTP/NCI, 2004).
The list is a part of this screen's results and no random one: it gathers tests that were run many times, whatever their T/C, doses with no T/C, and many T/C values between a quarter and a half above the control. Other doses and runs of a compound stand elsewhere. T/C: endpoint of the treated group in % of that of the vehicle group. Some T/C values are followed by the survivors on the day toxicity was checked, most often the fifth; where none is given, no animal had died by that day. Schedules are NCI's codes, taken here to give the interval after Q, in days (D) or hours (H), and the number of doses after X. Some doses have a count of surviving animals in place of a T/C: the source files T/C as zero there, which appears to mark a toxic dose or a test without result, not a measured value. Some doses without a T/C left all or most animals alive at the check, yet need not have been tolerated: survival well below the control is almost never listed, so the zero probably covers shortened survival too. Counts of survivors are from the toxicity check (mostly the fifth day) where no day follows; animals may have died later. Some entries hold several experiments; the results are listed from low to high. Where survival is the endpoint, the PubChem record calls one and a half times the control and up active, and a quarter to a half above the control has no call in these data; cut-offs in other NCI protocols can differ.

Tested on: BDF1 mice, s.c. Lewis lung carcinoma, T/C %
Test: NCI In Vivo Anticancer Drug Screen. Data for tumor model Lewis Lung Carcinoma (subcutaneous) in B6D2F1 (BDF1) mice
Procedure, shortened: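 Antitumor effect in vivo is scored from survival or tumor burden, reported as treated relative to vehicle controls.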

[1] = T/C endpoint: median survival time, dose: 12.5 mg/kg/injection, schedule: Q01DX009 (ip), vehicle: saline, higher T/C = longer survival
[2] = T/C endpoint: median survival time, dose: 25.0 mg/kg/injection, schedule: Q01DX009 (ip), vehicle: saline, higher T/C = longer survival
[3] = T/C endpoint: mean tumor weight, dose: 200.0 mg/kg/injection, schedule: Q01DX011 (ip), vehicle: saline, higher T/C = larger tumour
[4] = T/C endpoint: median survival time, dose: 400.0 mg/kg/injection, schedule: Q01DX009 (ip), vehicle: saline with Tween-80, higher T/C = longer survival

O=c1[nH]cc(N(CCCl)CCCl)c(=O)[nH]1
survivor count (T/C endpoint: mean tumor weight, dose: 0.85 mg/kg/injection, schedule: Q01DX011 (ip), vehicle: carboxymethylcellulose (CMC), higher T/C = larger tumour): 6 of 10 | survivor count (T/C endpoint: mean tumor weight, dose: 1.7 mg/kg/injection, schedule: Q01DX011 (ip), vehicle: carboxymethylcellulose (CMC), higher T/C = larger tumour): 4 of 10 | T/C (T/C endpoint: median survival time, dose: 0.25 mg/kg/injection, schedule: Q01DX009 (ip), vehicle: saline, higher T/C = longer survival): 136 % of control | T/C (T/C endpoint: median survival time, dose: 0.5 mg/kg/injection, schedule: Q01DX009 (ip), vehicle: saline, higher T/C = longer survival): 136 % of control | survivor count (T/C endpoint: median survival time, dose: 1.0 mg/kg/injection, schedule: Q01DX009 (ip), vehicle: saline, higher T/C = longer survival): 10 of 10 | survivor count (T/C endpoint: median survival time, dose: 2.0 mg/kg/injection, schedule: Q01DX009 (ip), vehicle: saline, higher T/C = longer survival): 10 of 10 | survivor count (T/C endpoint: median survival time, dose: 4.0 mg/kg/injection, schedule: Q01DX009 (ip), vehicle: saline, higher T/C = longer survival): 9 of 10

CC(=O)NC1=C(N2CC2)C(=O)C(NC(C)=O)=C(N2CC2)C1=O
T/C (T/C endpoint: median survival time, dose: 1.0 mg/kg/injection, schedule: Q01DX005 (ip), vehicle: saline with Tween-80, higher T/C = longer survival): 126 % of control | T/C (T/C endpoint: median survival time, dose: 1.0 mg/kg/injection, schedule: Q01DX009 (ip), vehicle: saline with Tween-80, higher T/C = longer survival): 126 % of control | T/C (T/C endpoint: median survival time, dose: 2.0 mg/kg/injection, schedule: Q01DX005 (ip), vehicle: saline with Tween-80, higher T/C = longer survival): 135 % of control | survivor count (T/C endpoint: median survival time, dose: 2.0 mg/kg/injection, schedule: Q01DX009 (ip), vehicle: saline with Tween-80, higher T/C = longer survival): 10 of 10 | survivor count (T/C endpoint: median survival time, dose: 4.0 mg/kg/injection, schedule: Q01DX005 (ip), vehicle: saline with Tween-80, higher T/C = longer survival): 10 of 10

CC1CCC[N-]C1.CC1CCC[N-]C1.CC1CCC[N-]C1.CC1CCC[N-]C1.[Cl][Rh][Cl] (configuration not stated)
survivor count (T/C endpoint: median survival time, dose: 12.0 mg/kg/injection, schedule: Q01DX009 (ip), vehicle: Klucel (hydroxypropylcellulose) (HPC), higher T/C = longer survival): 7 of 10

O=C(/C(=C\c1ccccc1)CN1CCOCC1)c1ccc(Br)cc1
survivor count [1]: 10 of 10 | survivor count [2]: 10 of 10

Cc1ccc(NC(=O)N(CCCl)N=O)cc1NC(=O)N(CCCl)N=O
survivor count (T/C endpoint: median survival time, dose: 12.5 mg/kg/injection, schedule: Q01DX009 (ip), vehicle: other, higher T/C = longer survival): 10 of 10 | survivor count (T/C endpoint: median survival time, dose: 25.0 mg/kg/injection, schedule: Q01DX009 (ip), vehicle: other, higher T/C = longer survival): 10 of 10

NC(=O)c1csc(C2OC(CO)C(O)C2O)n1 (configuration not stated)
T/C (T/C endpoint: median survival time, dose: 9.38 mg/kg/injection, schedule: Q01DX009 (ip), vehicle: water, evaluated on day 56, higher T/C = longer survival): 139 % of control | T/C (T/C endpoint: median survival time, dose: 9.38 mg/kg/injection, schedule: Q01DX009 (ip), vehicle: water, evaluated on day 70, higher T/C = longer survival): 141 % of control

CC(=O)NCCSC(=O)C(=O)SCCNC(C)=O
survivor count [3]: 1 of 6

Nc1nc2nc[nH]c2c(=O)[nH]1
survivor count [3]: 3 of 6 | survivor count (T/C endpoint: mean tumor weight, dose: 400.0 mg/kg/injection, schedule: Q01DX011 (ip), vehicle: saline, higher T/C = larger tumour): 0 of 6

COc1ccc2c3c(c4cc(OC)c(OC)cc4c2c1)C[C@H]1CCCCN1C3
T/C (T/C endpoint: mean tumor weight, dose: 0.5 mg/kg/injection, schedule: Q01DX011 (ip), vehicle: other, evaluated on day 12, higher T/C = larger tumour): 129 % of control [9 of 10 alive] | survivor count (T/C endpoint: mean tumor weight, dose: 1.0 mg/kg/injection, schedule: Q01DX011 (ip), vehicle: other, higher T/C = larger tumour): 2 of 6 | survivor count (T/C endpoint: mean tumor weight, dose: 2.0 mg/kg/injection, schedule: Q01DX011 (ip), vehicle: other, higher T/C = larger tumour): 0 of 6

O=C1C=Cc2ccc(O)cc2C1=O
survivor count (T/C endpoint: mean tumor weight, dose: 2.0 mg/kg/injection, schedule: Q01DX011 (ip), vehicle: saline, higher T/C = larger tumour): 0 of 7 | survivor count (T/C endpoint: mean tumor weight, dose: 3.0 mg/kg/injection, schedule: Q01DX011 (ip), vehicle: saline, higher T/C = larger tumour): 0 of 7 | survivor count (T/C endpoint: mean tumor weight, dose: 4.5 mg/kg/injection, schedule: Q01DX011 (ip), vehicle: saline, higher T/C = larger tumour): 0 of 7 | survivor count (T/C endpoint: mean tumor weight, dose: 6.7 mg/kg/injection, schedule: Q01DX011 (ip), vehicle: saline, higher T/C = larger tumour): 0 of 7

Nc1cc(Cl)cc(Cl)c1
survivor count (T/C endpoint: mean tumor weight, dose: 100.0 mg/kg/injection, schedule: Q01DX011 (ip), vehicle: other, higher T/C = larger tumour): 3 of 6

CC(C)Sc1nc(N)nc2nc[nH]c12
survivor count (T/C endpoint: mean tumor weight, dose: 600.0 mg/kg/injection, schedule: Q01DX011 (ip), vehicle: other, higher T/C = larger tumour): 0 of 6

CC(=O)Nc1c(Cl)cc2c(c1Cl)Cc1cc([N+](=O)[O-])ccc1-2
survivor count (T/C endpoint: mean tumor weight, dose: 30.0 mg/kg/injection, schedule: Q01DX011 (ip), vehicle: carboxymethylcellulose (CMC), higher T/C = larger tumour): 1 of 6 | survivor count (T/C endpoint: mean tumor weight, dose: 50.0 mg/kg/injection, schedule: Q01DX011 (ip), vehicle: carboxymethylcellulose (CMC), higher T/C = larger tumour): 3 of 6 | survivor count (T/C endpoint: mean tumor weight, dose: 65.0 mg/kg/injection, schedule: Q01DX011 (ip), vehicle: carboxymethylcellulose (CMC), higher T/C = larger tumour): 1 of 6 | survivor count (T/C endpoint: mean tumor weight, dose: 125.0 mg/kg/injection, schedule: Q01DX011 (ip), vehicle: carboxymethylcellulose (CMC), higher T/C = larger tumour): 2 of 6 | survivor count (T/C endpoint: mean tumor weight, dose: 190.0 mg/kg/injection, schedule: Q01DX011 (ip), vehicle: carboxymethylcellulose (CMC), higher T/C = larger tumour): 2 of 6 | survivor count (T/C endpoint: mean tumor weight, dose: 250.0 mg/kg/injection, schedule: Q01DX011 (ip), vehicle: carboxymethylcellulose (CMC), higher T/C = larger tumour): 1 of 6

COC1N(C2CC(O)C(CO)O2)C(=O)NC(=O)C1(F)Br (configuration not stated)
survivor count (T/C endpoint: mean tumor weight, dose: 20.0 mg/kg/injection, schedule: Q01DX011 (ip), vehicle: saline, higher T/C = larger tumour): 2 of 7 | survivor count (T/C endpoint: mean tumor weight, dose: 30.0 mg/kg/injection, schedule: Q01DX011 (ip), vehicle: saline, higher T/C = larger tumour): 0 of 6, 2 of 7, 3 of 6 | T/C (T/C endpoint: median survival time, dose: 6.25 mg/kg/injection, schedule: Q01DX009 (ip), vehicle: saline, higher T/C = longer survival): 125 % of control | T/C [1]: 126 % of control | survivor count [1]: 10 of 10 | survivor count [2]: 10 of 10

O=NN(CCCl)C(=O)Nc1ccc(I)cc1
survivor count (T/C endpoint: median survival time, dose: 12.5 mg/kg/injection, schedule: Q01DX009 (ip), vehicle: Klucel (hydroxypropylcellulose) (HPC), higher T/C = longer survival): 10 of 10 | survivor count (T/C endpoint: median survival time, dose: 25.0 mg/kg/injection, schedule: Q01DX009 (ip), vehicle: Klucel (hydroxypropylcellulose) (HPC), higher T/C = longer survival): 10 of 10 | survivor count (T/C endpoint: median survival time, dose: 100.0 mg/kg/injection, schedule: Q01DX009 (ip), vehicle: Klucel (hydroxypropylcellulose) (HPC), higher T/C = longer survival): 10 of 10

Cc1ccc(N=NN(C)C)cc1
survivor count (T/C endpoint: mean tumor weight, dose: 30.0 mg/kg/injection, schedule: Q01DX011 (ip), vehicle: other, higher T/C = larger tumour): 0 of 6 | survivor count (T/C endpoint: mean tumor weight, dose: 120.0 mg/kg/injection, schedule: Q01DX011 (ip), vehicle: other, higher T/C = larger tumour): 0 of 6

O=C1OC(C(O)CO)C(O)=C1O (configuration not stated)
T/C (T/C endpoint: median survival time, dose: 10.0 mg/kg/injection, schedule: Q02DX009 (ip), vehicle: saline, higher T/C = longer survival): 133 % of control | T/C (T/C endpoint: median survival time, dose: 100.0 mg/kg/injection, schedule: Q02DX009 (ip), vehicle: saline, higher T/C = longer survival): 128 % of control

COc1ccc(-c2ccc(OC)c(OC)c2OC)c(N)c1
survivor count (T/C endpoint: median survival time, dose: 100.0 mg/kg/injection, schedule: Q01DX009 (ip), vehicle: saline with Tween-80, higher T/C = longer survival): 10 of 10 | survivor count [4]: 10 of 10

CN(C)/N=N/c1nc[nH]c1C(N)=O
survivor count (T/C endpoint: mean tumor weight, dose: 400.0 mg/kg/injection, schedule: Q01DX010 (ip), vehicle: saline, higher T/C = larger tumour): 2 of 6 | survivor count (T/C endpoint: mean tumor weight, dose: 800.0 mg/kg/injection, schedule: Q01DX010 (ip), vehicle: saline, higher T/C = larger tumour): 0 of 6 | survivor count (T/C endpoint: median survival time, dose: 40.0 mg/kg/injection, schedule: Q01DX015 (ip), vehicle: carboxymethylcellulose (CMC), higher T/C = longer survival): 10 of 10 | T/C (T/C endpoint: median survival time, dose: 50.0 mg/kg/injection, schedule: Q01DX009 (ip), vehicle: saline with Tween-80, higher T/C = longer survival): 131 % of control | T/C (T/C endpoint: median survival time, dose: 60.0 mg/kg/injection, schedule: Q01DX015 (ip), vehicle: carboxymethylcellulose (CMC), higher T/C = longer survival): 149 % of control | T/C (T/C endpoint: median survival time, dose: 75.0 mg/kg/injection, schedule: Q01DX009 (ip), vehicle: Klucel (hydroxypropylcellulose) (HPC), higher T/C = longer survival): 125 % of control | survivor count (T/C endpoint: median survival time, dose: 75.0 mg/kg/injection, schedule: Q01DX009 (ip), vehicle: saline with Tween-80, higher T/C = longer survival): 9 of 9 | T/C (T/C endpoint: median survival time, dose: 150.0 mg/kg/injection, schedule: Q01DX009 (ip), vehicle: Klucel (hydroxypropylcellulose) (HPC), higher T/C = longer survival): 126 % of control | survivor count (T/C endpoint: median survival time, dose: 150.0 mg/kg/injection, schedule: Q01DX009 (ip), vehicle: saline with Tween-80, higher T/C = longer survival): 10 of 10 | survivor count (T/C endpoint: median survival time, dose: 300.0 mg/kg/injection, schedule: Q01DX009 (ip), vehicle: Klucel (hydroxypropylcellulose) (HPC), higher T/C = longer survival): 10 of 10 | survivor count (T/C endpoint: median survival time, dose: 300.0 mg/kg/injection, schedule: Q01DX009 (ip), vehicle: saline with Tween-80, higher T/C = longer survival): 10 of 10 and 9 of 9 | survivor count [4]: 9 of 10 | T/C (T/C endpoint: median survival time, dose: 450.0 mg/kg/injection, schedule: Q01DX001 (ip), vehicle: carboxymethylcellulose (CMC), higher T/C = longer survival): 134 % of control | survivor count (T/C endpoint: median survival time, dose: 670.0 mg/kg/injection, schedule: Q01DX001 (ip), vehicle: carboxymethylcellulose (CMC), higher T/C = longer survival): 10 of 10 | survivor count (T/C endpoint: median survival time, dose: 1005.0 mg/kg/injection, schedule: Q01DX001 (ip), vehicle: carboxymethylcellulose (CMC), higher T/C = longer survival): 8 of 10 and 8 of 10 on day 11
